Data published in publication PMC10904832.
No constants are given. Whether binding was seen depends on the method and setting. Binding seen in cells or lysates may run through a third protein. Some results given as binding are weak or reduced against the parent protein; the word gives no strength.

Sequences of proteins named here, by UniProt entry; tags and fusion partners are left off.
UniProt Q14643: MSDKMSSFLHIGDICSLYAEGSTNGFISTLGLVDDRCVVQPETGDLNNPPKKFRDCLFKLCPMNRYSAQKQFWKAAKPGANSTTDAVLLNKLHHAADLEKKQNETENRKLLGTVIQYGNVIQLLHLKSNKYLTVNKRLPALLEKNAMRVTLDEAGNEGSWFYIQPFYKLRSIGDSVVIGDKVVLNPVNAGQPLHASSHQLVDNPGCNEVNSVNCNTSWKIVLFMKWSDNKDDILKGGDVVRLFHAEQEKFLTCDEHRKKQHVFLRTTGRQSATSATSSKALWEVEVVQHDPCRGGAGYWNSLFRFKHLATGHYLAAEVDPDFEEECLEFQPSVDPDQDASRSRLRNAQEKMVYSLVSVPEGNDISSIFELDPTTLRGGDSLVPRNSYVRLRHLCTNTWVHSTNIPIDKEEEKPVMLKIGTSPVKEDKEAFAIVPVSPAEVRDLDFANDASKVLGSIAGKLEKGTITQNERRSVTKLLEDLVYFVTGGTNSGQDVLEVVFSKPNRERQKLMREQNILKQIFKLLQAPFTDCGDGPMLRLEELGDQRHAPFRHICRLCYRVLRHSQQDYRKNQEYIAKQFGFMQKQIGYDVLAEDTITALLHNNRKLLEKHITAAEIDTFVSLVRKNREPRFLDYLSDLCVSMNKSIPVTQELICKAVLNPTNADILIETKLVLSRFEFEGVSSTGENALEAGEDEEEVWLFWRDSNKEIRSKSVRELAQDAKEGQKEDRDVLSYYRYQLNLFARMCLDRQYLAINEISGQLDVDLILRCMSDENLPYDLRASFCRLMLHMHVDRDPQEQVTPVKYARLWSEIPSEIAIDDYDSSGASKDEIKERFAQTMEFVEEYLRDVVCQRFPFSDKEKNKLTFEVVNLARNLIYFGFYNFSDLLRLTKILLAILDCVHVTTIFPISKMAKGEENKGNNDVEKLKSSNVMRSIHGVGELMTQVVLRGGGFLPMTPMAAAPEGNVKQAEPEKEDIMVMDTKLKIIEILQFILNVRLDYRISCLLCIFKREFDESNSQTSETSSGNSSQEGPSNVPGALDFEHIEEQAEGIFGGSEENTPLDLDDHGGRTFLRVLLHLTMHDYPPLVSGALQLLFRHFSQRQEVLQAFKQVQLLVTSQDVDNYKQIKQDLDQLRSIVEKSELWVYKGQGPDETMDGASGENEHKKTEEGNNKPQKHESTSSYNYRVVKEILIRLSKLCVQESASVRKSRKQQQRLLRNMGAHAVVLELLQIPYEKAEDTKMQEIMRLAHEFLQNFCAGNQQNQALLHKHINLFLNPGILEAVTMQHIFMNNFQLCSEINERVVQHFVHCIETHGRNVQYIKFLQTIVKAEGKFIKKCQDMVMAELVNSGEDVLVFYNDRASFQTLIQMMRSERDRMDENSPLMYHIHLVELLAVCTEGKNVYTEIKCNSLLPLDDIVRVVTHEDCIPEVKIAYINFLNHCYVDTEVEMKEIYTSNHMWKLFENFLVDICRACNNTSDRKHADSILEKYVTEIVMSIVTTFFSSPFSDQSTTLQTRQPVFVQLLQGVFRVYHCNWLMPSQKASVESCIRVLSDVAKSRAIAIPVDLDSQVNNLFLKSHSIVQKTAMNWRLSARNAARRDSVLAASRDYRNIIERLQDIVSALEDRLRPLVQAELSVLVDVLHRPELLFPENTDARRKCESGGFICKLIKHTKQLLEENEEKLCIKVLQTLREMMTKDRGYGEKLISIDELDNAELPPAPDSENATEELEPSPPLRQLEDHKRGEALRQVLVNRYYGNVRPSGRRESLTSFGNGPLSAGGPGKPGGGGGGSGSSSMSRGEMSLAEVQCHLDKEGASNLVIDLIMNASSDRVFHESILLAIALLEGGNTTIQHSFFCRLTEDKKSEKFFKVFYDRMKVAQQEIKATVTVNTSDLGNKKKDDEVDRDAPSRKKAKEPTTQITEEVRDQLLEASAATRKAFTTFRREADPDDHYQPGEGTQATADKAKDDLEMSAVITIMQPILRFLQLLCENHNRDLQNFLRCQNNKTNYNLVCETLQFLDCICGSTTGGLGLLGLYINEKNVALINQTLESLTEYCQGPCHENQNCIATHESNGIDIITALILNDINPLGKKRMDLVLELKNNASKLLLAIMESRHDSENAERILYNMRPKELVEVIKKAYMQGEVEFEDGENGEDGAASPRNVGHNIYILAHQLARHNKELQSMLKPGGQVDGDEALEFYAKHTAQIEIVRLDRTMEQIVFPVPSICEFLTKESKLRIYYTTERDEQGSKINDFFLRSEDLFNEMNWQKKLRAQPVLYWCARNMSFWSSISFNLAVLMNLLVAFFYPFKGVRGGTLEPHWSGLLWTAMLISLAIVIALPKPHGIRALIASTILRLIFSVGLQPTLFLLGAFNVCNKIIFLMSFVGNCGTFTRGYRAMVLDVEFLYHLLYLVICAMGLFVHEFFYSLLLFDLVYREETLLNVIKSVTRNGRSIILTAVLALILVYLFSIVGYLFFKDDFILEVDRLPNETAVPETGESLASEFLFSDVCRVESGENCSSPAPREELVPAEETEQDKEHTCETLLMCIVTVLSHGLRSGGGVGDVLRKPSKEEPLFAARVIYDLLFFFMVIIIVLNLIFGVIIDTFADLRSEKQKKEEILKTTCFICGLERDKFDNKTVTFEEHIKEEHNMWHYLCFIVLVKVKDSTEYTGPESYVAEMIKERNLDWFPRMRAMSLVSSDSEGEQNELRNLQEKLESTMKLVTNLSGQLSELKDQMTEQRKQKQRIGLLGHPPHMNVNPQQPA
UniProt P21796: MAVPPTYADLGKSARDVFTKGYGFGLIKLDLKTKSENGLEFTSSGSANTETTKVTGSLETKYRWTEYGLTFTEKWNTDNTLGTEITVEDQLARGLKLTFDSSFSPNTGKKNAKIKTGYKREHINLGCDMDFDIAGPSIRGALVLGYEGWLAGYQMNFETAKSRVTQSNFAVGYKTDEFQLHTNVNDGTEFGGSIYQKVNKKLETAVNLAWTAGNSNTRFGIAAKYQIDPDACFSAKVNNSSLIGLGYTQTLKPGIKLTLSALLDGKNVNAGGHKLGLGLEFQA

Target: inositol 1,4,5-triphosphate receptor (IP3R1) (human (endogenous in HeLa)) (UniProt Q14643)
Test: proximity ligation; Duolink in situ PLA in fixed (4% paraformaldehyde), permeabilised (0.2% Triton X-100) HeLa cells, with and without CCCP for 3 h; endogenous proteins detected with pairs of primary antibodies; PLA dots per cell counted

VDAC1 (from UniProt P21796 1-283)
binding: binds
